Measured values reported in publication PMC1849891.
Results are given in words; binding and its absence hold for the method and conditions named. In cells and extracts the contact can be indirect. Here binding means that the protein was enriched with, or labelled near, the bait; the list need not be complete. For some assays here: No binding means not detected with the bait. Where a sequence is shown, tags or fusion partners need not be part of it.

Chains of the proteins cited; added tags and fusions are not shown.
UniProt Q9US25: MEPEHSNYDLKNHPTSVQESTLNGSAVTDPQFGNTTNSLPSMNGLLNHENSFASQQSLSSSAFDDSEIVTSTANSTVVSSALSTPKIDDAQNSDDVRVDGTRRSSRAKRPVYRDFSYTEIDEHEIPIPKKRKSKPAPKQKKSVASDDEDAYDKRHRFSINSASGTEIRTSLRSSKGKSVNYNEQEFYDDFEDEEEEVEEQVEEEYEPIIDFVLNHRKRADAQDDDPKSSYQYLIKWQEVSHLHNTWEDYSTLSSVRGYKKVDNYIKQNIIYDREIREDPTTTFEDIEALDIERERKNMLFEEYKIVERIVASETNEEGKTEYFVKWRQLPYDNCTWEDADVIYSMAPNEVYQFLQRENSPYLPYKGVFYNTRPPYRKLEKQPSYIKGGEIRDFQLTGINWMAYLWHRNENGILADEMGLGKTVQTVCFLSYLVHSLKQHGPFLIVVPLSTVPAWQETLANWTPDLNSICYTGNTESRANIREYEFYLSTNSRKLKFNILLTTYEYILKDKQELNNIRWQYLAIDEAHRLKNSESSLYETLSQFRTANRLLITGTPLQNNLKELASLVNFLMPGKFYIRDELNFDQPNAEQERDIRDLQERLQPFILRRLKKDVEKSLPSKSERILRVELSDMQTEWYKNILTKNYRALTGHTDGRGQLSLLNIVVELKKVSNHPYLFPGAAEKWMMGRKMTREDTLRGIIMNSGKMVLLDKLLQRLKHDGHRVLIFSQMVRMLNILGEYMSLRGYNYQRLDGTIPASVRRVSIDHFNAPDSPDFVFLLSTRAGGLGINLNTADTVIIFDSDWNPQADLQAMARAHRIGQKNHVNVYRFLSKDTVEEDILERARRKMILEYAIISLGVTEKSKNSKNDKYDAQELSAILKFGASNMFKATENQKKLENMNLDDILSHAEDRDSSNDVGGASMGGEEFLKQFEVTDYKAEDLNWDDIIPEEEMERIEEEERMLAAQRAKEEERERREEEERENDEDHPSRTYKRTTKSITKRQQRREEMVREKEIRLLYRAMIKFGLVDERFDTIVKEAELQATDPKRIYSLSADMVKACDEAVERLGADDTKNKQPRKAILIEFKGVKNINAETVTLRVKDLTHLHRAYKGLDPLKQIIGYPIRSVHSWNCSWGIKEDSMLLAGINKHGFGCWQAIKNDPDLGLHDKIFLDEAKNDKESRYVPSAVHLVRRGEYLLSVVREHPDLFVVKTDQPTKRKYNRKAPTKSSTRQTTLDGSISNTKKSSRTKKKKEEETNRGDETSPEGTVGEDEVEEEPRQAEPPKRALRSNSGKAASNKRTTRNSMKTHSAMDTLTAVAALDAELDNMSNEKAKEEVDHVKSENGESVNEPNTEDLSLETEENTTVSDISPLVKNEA

Key:
Test in all cases: affinity purification with mass spectrometry; TAP purification from S. pombe soluble extract (20 mM HEPES pH 8.0, 150 mM NaCl, 0.1% Tween 20): IgG beads, TEV cut, calmodulin-binding beads, EGTA elution; eluate digested with trypsin and peptides identified by MS
[1] = target: T1, C-terminally TAP-tagged Swm2 (S. pombe) (UniProt Q10135)
T1 sequence: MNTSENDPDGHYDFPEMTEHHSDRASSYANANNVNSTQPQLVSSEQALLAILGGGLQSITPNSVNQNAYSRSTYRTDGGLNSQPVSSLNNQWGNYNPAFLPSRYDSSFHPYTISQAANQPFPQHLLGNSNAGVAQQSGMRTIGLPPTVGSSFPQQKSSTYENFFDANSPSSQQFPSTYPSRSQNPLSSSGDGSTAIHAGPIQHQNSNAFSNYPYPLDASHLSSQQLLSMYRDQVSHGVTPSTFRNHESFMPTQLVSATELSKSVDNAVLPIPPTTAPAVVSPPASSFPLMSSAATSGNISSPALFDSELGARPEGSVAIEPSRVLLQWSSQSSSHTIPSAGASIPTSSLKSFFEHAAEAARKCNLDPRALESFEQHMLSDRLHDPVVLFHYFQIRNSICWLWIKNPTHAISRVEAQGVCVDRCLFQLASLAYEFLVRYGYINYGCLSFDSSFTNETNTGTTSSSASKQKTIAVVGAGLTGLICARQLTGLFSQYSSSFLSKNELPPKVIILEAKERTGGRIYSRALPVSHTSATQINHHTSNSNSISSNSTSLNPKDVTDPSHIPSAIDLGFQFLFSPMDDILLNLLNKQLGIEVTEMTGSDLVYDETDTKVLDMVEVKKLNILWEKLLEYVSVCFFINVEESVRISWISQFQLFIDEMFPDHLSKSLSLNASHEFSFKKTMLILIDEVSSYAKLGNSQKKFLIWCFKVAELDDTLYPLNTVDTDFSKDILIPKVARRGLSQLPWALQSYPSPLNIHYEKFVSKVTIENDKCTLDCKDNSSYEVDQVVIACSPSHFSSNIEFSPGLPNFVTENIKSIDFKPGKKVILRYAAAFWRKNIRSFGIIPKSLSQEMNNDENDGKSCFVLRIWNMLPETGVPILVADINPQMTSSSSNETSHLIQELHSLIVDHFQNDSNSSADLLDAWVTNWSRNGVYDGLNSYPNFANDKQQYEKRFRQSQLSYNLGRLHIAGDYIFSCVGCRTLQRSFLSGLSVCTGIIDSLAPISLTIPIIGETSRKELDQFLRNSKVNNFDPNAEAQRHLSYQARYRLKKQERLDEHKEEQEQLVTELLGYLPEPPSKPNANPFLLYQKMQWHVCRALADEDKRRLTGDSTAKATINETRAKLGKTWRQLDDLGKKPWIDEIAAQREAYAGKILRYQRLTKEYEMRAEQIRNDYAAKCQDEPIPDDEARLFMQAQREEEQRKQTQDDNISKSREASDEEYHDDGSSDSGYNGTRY

[2] = target: T2, C-terminally TAP-tagged Swm1 (S. pombe) (UniProt Q9Y802)
T2 sequence: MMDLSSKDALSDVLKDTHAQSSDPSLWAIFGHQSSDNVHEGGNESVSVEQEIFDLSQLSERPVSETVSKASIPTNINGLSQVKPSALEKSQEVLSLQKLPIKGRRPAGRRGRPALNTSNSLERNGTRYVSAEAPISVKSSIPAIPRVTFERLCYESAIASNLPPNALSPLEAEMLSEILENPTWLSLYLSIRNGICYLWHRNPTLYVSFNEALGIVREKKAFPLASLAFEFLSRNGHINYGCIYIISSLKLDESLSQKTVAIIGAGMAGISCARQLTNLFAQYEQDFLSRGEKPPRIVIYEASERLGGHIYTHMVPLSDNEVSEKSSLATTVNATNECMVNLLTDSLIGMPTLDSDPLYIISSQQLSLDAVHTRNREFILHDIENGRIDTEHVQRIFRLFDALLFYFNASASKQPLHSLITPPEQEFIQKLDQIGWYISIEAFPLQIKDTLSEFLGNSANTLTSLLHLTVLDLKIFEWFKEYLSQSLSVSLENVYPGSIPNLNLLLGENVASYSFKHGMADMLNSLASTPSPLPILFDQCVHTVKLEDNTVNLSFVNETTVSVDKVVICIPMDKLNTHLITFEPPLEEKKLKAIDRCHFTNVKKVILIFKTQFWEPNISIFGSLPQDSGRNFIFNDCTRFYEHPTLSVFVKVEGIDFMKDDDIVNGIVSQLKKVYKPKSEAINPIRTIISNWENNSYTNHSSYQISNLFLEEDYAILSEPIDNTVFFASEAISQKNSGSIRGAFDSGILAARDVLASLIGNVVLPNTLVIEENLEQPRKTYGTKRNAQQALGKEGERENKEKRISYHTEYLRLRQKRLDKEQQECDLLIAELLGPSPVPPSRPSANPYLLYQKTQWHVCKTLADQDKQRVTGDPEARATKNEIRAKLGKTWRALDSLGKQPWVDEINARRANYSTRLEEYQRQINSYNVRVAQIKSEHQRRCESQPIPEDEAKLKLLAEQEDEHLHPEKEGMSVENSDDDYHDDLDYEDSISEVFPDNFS

[3] = target: T3, C-terminally TAP-tagged Swm1 (S. pombe), Q9Y802; conditions: remark: other sources report otherwise
T3 chain: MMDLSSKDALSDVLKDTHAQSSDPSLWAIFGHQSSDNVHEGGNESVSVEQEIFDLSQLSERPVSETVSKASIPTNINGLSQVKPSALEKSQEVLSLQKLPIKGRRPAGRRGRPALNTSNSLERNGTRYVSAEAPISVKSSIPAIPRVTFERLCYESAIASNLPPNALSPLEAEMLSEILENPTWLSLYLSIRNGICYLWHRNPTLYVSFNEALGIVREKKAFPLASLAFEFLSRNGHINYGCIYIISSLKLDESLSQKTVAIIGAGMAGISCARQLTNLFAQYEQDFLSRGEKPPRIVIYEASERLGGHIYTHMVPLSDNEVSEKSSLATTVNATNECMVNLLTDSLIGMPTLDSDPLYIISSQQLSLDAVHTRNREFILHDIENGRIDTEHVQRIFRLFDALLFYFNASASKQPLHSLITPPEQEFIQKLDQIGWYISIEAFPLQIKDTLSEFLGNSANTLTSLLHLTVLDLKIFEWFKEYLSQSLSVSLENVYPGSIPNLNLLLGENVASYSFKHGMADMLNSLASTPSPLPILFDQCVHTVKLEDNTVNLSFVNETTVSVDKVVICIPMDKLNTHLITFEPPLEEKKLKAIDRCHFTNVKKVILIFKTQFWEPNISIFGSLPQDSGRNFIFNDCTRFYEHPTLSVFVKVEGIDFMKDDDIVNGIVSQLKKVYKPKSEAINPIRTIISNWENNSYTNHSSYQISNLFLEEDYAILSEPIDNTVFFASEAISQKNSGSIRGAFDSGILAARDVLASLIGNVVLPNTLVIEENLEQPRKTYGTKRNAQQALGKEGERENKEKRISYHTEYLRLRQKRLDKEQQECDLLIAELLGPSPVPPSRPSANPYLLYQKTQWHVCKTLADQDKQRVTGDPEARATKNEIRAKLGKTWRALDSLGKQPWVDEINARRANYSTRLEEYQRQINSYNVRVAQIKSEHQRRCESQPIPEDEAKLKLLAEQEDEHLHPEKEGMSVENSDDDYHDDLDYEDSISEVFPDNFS

## SPBPJ758.01 (an RNA recognition motif protein) (S. pombe)
[1]
  binding: no binding
[2]
  binding: no binding

## Hrp1 (from UniProt Q9US25 1-1373)
[1]
  binding: no binding
[2]
  binding: no binding

B1: Swm2, Q10135 1-1235 (protein)
chain: MNTSENDPDGHYDFPEMTEHHSDRASSYANANNVNSTQPQLVSSEQALLAILGGGLQSITPNSVNQNAYSRSTYRTDGGLNSQPVSSLNNQWGNYNPAFLPSRYDSSFHPYTISQAANQPFPQHLLGNSNAGVAQQSGMRTIGLPPTVGSSFPQQKSSTYENFFDANSPSSQQFPSTYPSRSQNPLSSSGDGSTAIHAGPIQHQNSNAFSNYPYPLDASHLSSQQLLSMYRDQVSHGVTPSTFRNHESFMPTQLVSATELSKSVDNAVLPIPPTTAPAVVSPPASSFPLMSSAATSGNISSPALFDSELGARPEGSVAIEPSRVLLQWSSQSSSHTIPSAGASIPTSSLKSFFEHAAEAARKCNLDPRALESFEQHMLSDRLHDPVVLFHYFQIRNSICWLWIKNPTHAISRVEAQGVCVDRCLFQLASLAYEFLVRYGYINYGCLSFDSSFTNETNTGTTSSSASKQKTIAVVGAGLTGLICARQLTGLFSQYSSSFLSKNELPPKVIILEAKERTGGRIYSRALPVSHTSATQINHHTSNSNSISSNSTSLNPKDVTDPSHIPSAIDLGFQFLFSPMDDILLNLLNKQLGIEVTEMTGSDLVYDETDTKVLDMVEVKKLNILWEKLLEYVSVCFFINVEESVRISWISQFQLFIDEMFPDHLSKSLSLNASHEFSFKKTMLILIDEVSSYAKLGNSQKKFLIWCFKVAELDDTLYPLNTVDTDFSKDILIPKVARRGLSQLPWALQSYPSPLNIHYEKFVSKVTIENDKCTLDCKDNSSYEVDQVVIACSPSHFSSNIEFSPGLPNFVTENIKSIDFKPGKKVILRYAAAFWRKNIRSFGIIPKSLSQEMNNDENDGKSCFVLRIWNMLPETGVPILVADINPQMTSSSSNETSHLIQELHSLIVDHFQNDSNSSADLLDAWVTNWSRNGVYDGLNSYPNFANDKQQYEKRFRQSQLSYNLGRLHIAGDYIFSCVGCRTLQRSFLSGLSVCTGIIDSLAPISLTIPIIGETSRKELDQFLRNSKVNNFDPNAEAQRHLSYQARYRLKKQERLDEHKEEQEQLVTELLGYLPEPPSKPNANPFLLYQKMQWHVCRALADEDKRRLTGDSTAKATINETRAKLGKTWRQLDDLGKKPWIDEIAAQREAYAGKILRYQRLTKEYEMRAEQIRNDYAAKCQDEPIPDDEARLFMQAQREEEQRKQTQDDNISKSREASDEEYHDDGSSDSGYNGTRY
[3]
  binding: binds
